Source: patent US20250295802A1, “HER3 ANTIBODY-DRUG CONJUGATE AND USE THEREOF” (DUALITY BIOLOGICS (SUZHOU) CO., LTD., priority 2022, published 2025)
These are yes or no findings as the source states them, for the method shown. Some results given as binding are weak or reduced against the parent protein; the word gives no strength.

The chains behind the UniProt entries cited, without tags or fusion partners. Where a name states a change or a piece, a line headed by the entry shows the natural chain unless it says otherwise. A line that says so, or that is headed by a name, gives the form on record, which may keep a tag or linker. Residues count along the entry.
UniProt P21860, residues 20-643: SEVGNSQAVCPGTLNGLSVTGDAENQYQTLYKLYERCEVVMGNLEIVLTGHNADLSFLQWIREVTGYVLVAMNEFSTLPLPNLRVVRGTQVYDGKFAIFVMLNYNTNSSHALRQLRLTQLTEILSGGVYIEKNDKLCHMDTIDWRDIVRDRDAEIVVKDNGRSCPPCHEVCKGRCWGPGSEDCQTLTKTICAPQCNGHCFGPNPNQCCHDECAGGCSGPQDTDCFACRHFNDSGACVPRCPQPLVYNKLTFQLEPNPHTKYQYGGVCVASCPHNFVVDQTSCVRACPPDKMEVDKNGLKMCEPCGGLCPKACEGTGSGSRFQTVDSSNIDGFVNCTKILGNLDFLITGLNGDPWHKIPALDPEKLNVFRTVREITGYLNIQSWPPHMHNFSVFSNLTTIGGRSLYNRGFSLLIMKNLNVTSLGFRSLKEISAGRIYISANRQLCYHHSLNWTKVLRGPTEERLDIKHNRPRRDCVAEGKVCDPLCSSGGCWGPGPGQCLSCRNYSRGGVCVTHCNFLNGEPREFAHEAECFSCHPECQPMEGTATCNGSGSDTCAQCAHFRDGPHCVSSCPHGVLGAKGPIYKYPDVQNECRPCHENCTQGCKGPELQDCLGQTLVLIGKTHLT
cynomolgus monkey HER3 (G7PIG5, form named): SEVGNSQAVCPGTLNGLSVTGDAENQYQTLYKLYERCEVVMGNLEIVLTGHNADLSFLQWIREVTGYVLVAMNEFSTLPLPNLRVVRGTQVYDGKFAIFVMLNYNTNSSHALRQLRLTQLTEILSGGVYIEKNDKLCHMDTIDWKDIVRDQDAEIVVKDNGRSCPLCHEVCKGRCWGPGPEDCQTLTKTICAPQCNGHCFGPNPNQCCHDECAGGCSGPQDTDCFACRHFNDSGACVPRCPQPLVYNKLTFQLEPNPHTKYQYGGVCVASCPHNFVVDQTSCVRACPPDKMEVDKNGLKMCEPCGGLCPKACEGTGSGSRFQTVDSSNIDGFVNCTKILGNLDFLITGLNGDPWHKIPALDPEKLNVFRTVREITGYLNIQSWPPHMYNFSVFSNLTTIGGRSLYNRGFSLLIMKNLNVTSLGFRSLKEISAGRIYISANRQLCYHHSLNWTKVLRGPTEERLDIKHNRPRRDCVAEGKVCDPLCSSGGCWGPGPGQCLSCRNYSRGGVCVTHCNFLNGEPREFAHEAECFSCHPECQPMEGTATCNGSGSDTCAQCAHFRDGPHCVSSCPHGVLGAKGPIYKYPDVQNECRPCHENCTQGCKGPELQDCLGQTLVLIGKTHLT

Columns and labels:
human HER3-huFc [1] = biological target: T1, human HER3-huFc (human, UniProt P21860 20-643); experiment: ELISA after stress tests
T1 construct: also called huHER3; not shown: human Fc (huFc)

human HER3-huFc [2] = biological target: T1, human HER3-huFc; experiment: ELISA after 0, 3, 5 freeze-thaw cycles; antigen not named on the sheet, HER3 ELISA as in paragraph 289
human HER3-huFc [3] = biological target: T1, human HER3-huFc; experiment: ELISA after incubation at pH 3.5 for 0, 2, 4, 6 h; antigen not named on the sheet, HER3 ELISA as in paragraph 289
human HER3-huFc [4] = biological target: T1, human HER3-huFc; experiment: ELISA after incubation at 40 °C for 0, 7, 14 days; antigen not named on the sheet, HER3 ELISA as in paragraph 289
human HER3-huFc [5] = biological target: T1, human HER3-huFc; experiment: ELISA, chimeric antibody run in parallel with the freeze-thaw samples; antigen not named on the sheet, HER3 ELISA as in paragraph 289
human HER3-huFc [6] = biological target: T1, human HER3-huFc; experiment: ELISA, chimeric antibody run in parallel with the 40 °C stress samples; antigen not named on the sheet, HER3 ELISA as in paragraph 289
cynomolgus monkey HER3 [7] = biological target: T2, cynomolgus monkey HER3 (cynomolgus monkey, UniProt G7PIG5 20-643); experiment: ELISA
human HER3-huFc [8] = biological target: T1, human HER3-huFc; experiment: ELISA
human HER3-huFc [9] = biological target: T1, human HER3-huFc; experiment: ELISA, antigen coated
Method: ELISA assay: human HER2-ex-huFc, human HER3-huFc, and human EGFR-his were diluted to 2 μg/mL and 50 μL/well in a 96-well plate and incubated at 4° C. overnight. The plate was washed with 0.5×PBST, then incubated with 100 μL of a blocking buffer (PBS+3% BSA) at 37° C. for 2 h, and washed with 0.5×PBST. The 3F8 antibody was diluted with the blocking buffer in a 1:3 serial gradient, added at 50 μL/well, incubated at 37° C. for 40-50 min, and then washed with 0.5×PBST. […] Prior to assay, 50 μL of luminol buffer A+B was added to each well in a 1:1 mix.
EC50 of murine 3F8 binding to human HER3, HER2, and EGFR was analyzed using GraphPad Prism 6.0.

cynomolgus monkey HER3 [10] = biological target: T2, cynomolgus monkey HER3; experiment: ELISA on coated antigen, luminescence readout
human HER3-huFc [11] = biological target: T1, human HER3-huFc; experiment: ELISA on coated antigen, luminescence readout

Measured: binding

B1: humanized 3F8 antibody hu3F8-2 (antibody, human IgG1, kappa, V domains shown)
VH: QVQLQESGPGLVKPSETLSLTCTVSGYSITSAYYWNWIRQPFGKGLEWMGYISYDGRNNFNPSLKNRVTISRDTSKNQFSLKLSSVTAADTAVYYCARDGDYDYFDYWGQGTTVTVSS
VL: DIQMTQSPSSLSASVGDRVTITCRASQDISNYLNWYQQKPGKAPKLLIYYTSILHSGVPSRFSGSGSGTDYTFTISSLQPEDIATYFCQQGDTLPPTFGGGTKLEIKR
notes: also called Clone 2; clone-2
binds: human HER3-huFc [1] | human HER3-huFc [2] | human HER3-huFc [3] | human HER3-huFc [4]

B2: humanized 3F8 antibody hu3F8-3 (antibody, human IgG1, kappa, V domains shown)
VH: QVQLQESGPGLVKPSETLSLTCTVSGYSITSAYYWNWIRQPFGKGLEWMGYISYDGRNNFNPSLKNRVSISRDTSKNQFSLKLSSVTAADTATYYCARDGDYDYFDYWGQGTTVTVSS
VL: DIQMTQSPSSLSASVGDRVTITCRASQDISNYLNWYQQKPGKAPKLLIYYTSILHSGVPSRFSGSGSGTDYTFTISSLQPEDIATYFCQQGDTLPPTFGGGTKLEIKR
notes: also called Clone 3; clone-3
binds: human HER3-huFc [1] | human HER3-huFc [2] | human HER3-huFc [3] | human HER3-huFc [4]

B3: humanized 3F8 antibody hu3F8-1 (antibody, human IgG1, kappa, V domains shown)
VH: QVQLQESGPGLVKPSETLSLTCTVSGYSITSAYYWNWIRQPPGKGLEWIGYISYDGRNNFNPSLKNRVTISVDTSKNQFSLKLSSVTAADTAVYYCARDGDYDYFDYWGQGTTVTVSS
VL: DIQMTQSPSSLSASVGDRVTITCRASQDISNYLNWYQQKPGKAPKLLIYYTSILHSGVPSRFSGSGSGTDYTFTISSLQPEDIATYFCQQGDTLPPTFGGGTKLEIKR
notes: also called Clone 1; clone-1
binds: human HER3-huFc [1] | human HER3-huFc [2] | human HER3-huFc [3] | human HER3-huFc [4]

B4: chimeric 3F8 antibody (antibody, human IgG1, V domains shown)
VH: DVQLQESGPGLVKPSQSLSLTCSVTGYSITSAYYWNWIRQFPGDKLEWMGYISYDGRNNFNPSLKNRISITRDTSKNQFFLKLNSVTSGDTATYYCARDGDYDYFDYWGQGTTLTVSS
VL: DIQMTQTTSSLSASLGDRVTISCRASQDISNYLNWYQQKPDGTFKLLIYYTSILHSGVPSRFSGSGSGTDYSLTISNLEQEDIATYFCQQGDTLPPTFGAGTKLELK
notes: also called ch3F8; Chimeric antibody
binds: human HER3-huFc [5] | human HER3-huFc [6]

B5: murine 3F8 antibody (antibody, V domains shown)
VH: DVQLQESGPGLVKPSQSLSLTCSVTGYSITSAYYWNWIRQFPGDKLEWMGYISYDGRNNFNPSLKNRISITRDTSKNQFFLKLNSVTSGDTATYYCARDGDYDYFDYWGQGTTLTVSS
VL: DIQMTQTTSSLSASLGDRVTISCRASQDISNYLNWYQQKPDGTFKLLIYYTSILHSGVPSRFSGSGSGTDYSLTISNLEQEDIATYFCQQGDTLPPTFGAGTKLELK
notes: Mouse hybridoma antibody, made by hybridoma or recombinantly; also called m3F8
binds: cynomolgus monkey HER3 [7] | human HER3-huFc [8] | human HER3-huFc [9] | cynomolgus monkey HER3 [10] | human HER3-huFc [11]
